# In patent publication US20220160812A1, “A PHARMACEUTICALLY ACTIVE SUBSTANCE” (Cytopharma GmbH, priority 2019, published 2022):
# Part of at least one peptide drawing is inferred or uncertain, most often the ends. Non-standard residues stand in square brackets, D forms with d. Residues, ends and D or L forms follow the SMILES beside them.
# Assays:
# [1] = test system: human breast carcinoma cells (MDA-MB-231); assay: subG1 cell cycle FACS apoptosis assay, MDA-MB-231 cells; format: cell-based; details: MDA-MB-231, 100 μM, about 24 hours, FIG. 16
# Procedure: The adherent cells (A375 and BxPC-3 cells and MDA-MB-231, respectively) are seeded 24 hours before induction in 6-well plates in culture medium. For this, the cells are washed with PBS, then incubated with trypsin/EDTA solution at 37 degrees Celsius and suspended in culture medium. The 6-well plates are loaded with 1×10^5 cells/cm^2 in culture medium and the cells incubated for 24 hours until induction with the peptides in the incubator. For induction, the peptides are diluted in fresh culture medium. As control solutions, culture medium without peptide (DMSO-containing) in culture medium or etoposide solution is added. The cells are washed with PBS. Thereafter the peptide solution in culture medium is added to the cells. […]
# The second method analyzes the cell cycle phases which is drawn from the relative DNA content. Cells labeled by a fluorescent dye, using either DAPI or propidium iodide (PI) were analyzed by a cell sorter. […]
# The evaluation of the FACS analysis to determine the subG1 data was also carried out with the program Flowing Software, version 2.5.1. The fluorescence in the respective analysis channel for DAPI or propidium iodide was plotted as a histogram, the data from the respectively defined region R-1 being utilized (see FIG. 1). […]
# [2] = test system: BxPC-3 human pancreatic cancer cells; assay: subG1 cell cycle FACS apoptosis assay, BxPC-3 cells; format: cell-based; details: BxPC-3, Protocol B, about 24 hours
# Procedure: To transfer adherent cells (A375 and BxPC-3 cells) after culture, cells are washed twice with PBS. To detach the cells, the enzyme biotase is used according to the manufacturer's instructions. For this purpose, after washing with PBS, the cells are mixed with biotase (5 ml of biotase solution per 75 cm^2 surface of the cell culture bottles) and incubated for 5 min at 37 degrees Celsius, and the biotase is separated by centrifugation. Cells cultivated in suspension (MEC-1 and lymphocytes) were transferred by dilution. The cells are suspended in culture medium and counted, each time 1.5×10^5 cells/cm^2 are seeded in 48-well plates and cultured for between 1.5 and 24 hours at 37 degrees Celsius, 5% CO2. Peptides are pre-diluted from stock solution with culture medium and 200 μl of peptide solution added so that final concentrations of 30 to 500 μM peptide are present in at most 1% (v/v) DMSO. As control solutions, culture medium without peptide (DMSO-containing) in culture medium or etoposide solution is added. After incubating the cells for several hours, the cell supernatant is transferred to a FACS tube for each batch and, after washing the cells with PBS, the wash solution is added. Then the cells are incubated with 200 μl of biotase solution for 10 min, 37° C., the cells with the biotase are also transferred to the FACS tube and the cells are collected by centrifugation for 5 min. […]
# [3] = test system: A375 melanoma cells; assay: subG1 cell cycle FACS apoptosis assay, A375 melanoma cells; format: cell-based, human; details: A375, Protocol A, 200 μM, about 24 hours per Examples 21-30 (FIG. 5 legend: about 3 hours)
# Procedure: To transfer adherent cells (A375 and BxPC-3 cells) after culture, cells are washed twice with PBS. To detach the cells, the enzyme biotase is used according to the manufacturer's instructions. For this purpose, after washing with PBS, the cells are mixed with biotase (5 ml of biotase solution per 75 cm^2 surface of the cell culture bottles) and incubated for 5 min at 37 degrees Celsius, and the biotase is separated by centrifugation. Cells cultivated in suspension (MEC-1 and lymphocytes) were transferred by dilution. The cells are suspended in culture medium and counted, each time 1.5×10^5 cells/cm^2 are seeded in 48-well plates and cultured for between 1.5 and 24 hours at 37 degrees Celsius, 5% CO2. Peptides are pre-diluted from stock solution with culture medium and 200 μl of peptide solution added so that final concentrations of 30 to 500 μM peptide are present in at most 1% (v/v) DMSO. As control solutions, culture medium without peptide (DMSO-containing) in culture medium or etoposide solution is added. After incubating the cells for several hours, the cell supernatant is transferred to a FACS tube for each batch and, after washing the cells with PBS, the wash solution is added. Then the cells are incubated with 200 μl of biotase solution for 10 min, 37° C., the cells with the biotase are also transferred to the FACS tube and the cells are collected by centrifugation for 5 min. The cell pellet is suspended in 500 μl of serum-free culture medium, then 1.5 ml of cold 80% ethanol (ethanol/PBS-80/20, v/v, stored at −20° C.) is added, the FACS tubes sealed and stored at −20 degrees Celsius for 15 to 18 h. Thereafter, the cells are centrifuged for 5 minutes at 120 g, suspended after removal of the supernatant in 2 ml PBS and incubated at 37 degrees Celsius for 30 minutes. After re-centrifugation, the cells are suspended in 0.5 ml DAPI solution and incubated for 15 min at 20 degrees Celsius in the dark. Thereafter, the cells are stored dark for a maximum of four hours in an ice bath, followed by the FACS analysis.
# The adherent cells (A375 and BxPC-3 cells and MDA-MB-231, respectively) are seeded 24 hours before induction in 6-well plates in culture medium. For this, the cells are washed with PBS, then incubated with trypsin/EDTA solution at 37 degrees Celsius and suspended in culture medium. The 6-well plates are loaded with 1×10^5 cells/cm^2 in culture medium and the cells incubated for 24 hours until induction with the peptides in the incubator. For induction, the peptides are diluted in fresh culture medium. As control solutions, culture medium without peptide (DMSO-containing) in culture medium or etoposide solution is added. The cells are washed with PBS. Thereafter the peptide solution in culture medium is added to the cells. After incubation in the incubator (37° C., 5% CO2) between 1.5 and 24 hours, the cell supernatant is transferred to 15 ml centrifuge tubes, the cells are washed with 0.75 ml PBS and then with 0.5 ml versene solution. Both washings are combined with the cell supernatant. The cells are then added with 0.5 ml of trypsin/EDTA solution and incubated at about 37° C. for at most 10 minutes until the cells detached. The cell suspension is combined with cell supernatant and washings and centrifuged at about 130 g for about 10 minutes. After removing the supernatant, the cells are suspended in 400 μl of cell culture medium (without serum) and mixed with 1.2 ml of 80% ethanol/20% PBS (v/v) and incubated for 1 to 7 days at −20° C. For analysis, the cells are centrifuged at 130 g for 10 min, suspended in 2 ml PBS, and centrifuged again for 5 min. The cells are suspended in 700 μl PI buffer and incubated for 10 min at 37° C. in the dark. Subsequently, the cells are stored dark for a maximum of four hours in an ice bath, then the FACS analysis is performed.
# The proportion of cells which have died was determined by two methods, both rely on the analysis of cells by flow cytometry, often called FACS analysis. […]
# [4] = test system: human B-chronic lymphocytic leukaemia cells (MEC-1); assay: cell vitality FACS analysis (region R-1), MEC-1 cells; format: cell-based
smiles,measurement,setting,value
"CSCC[C@@H](NC(=O)[C@@H](Cc1c[nH]c2ccccc12)NC(=O)[C@@H](CCCCN)NC(=O)[C@@H](CCCCN)NC(=O)[C@H](NC(=O)[C@@H](CO)NC(=O)[C@H](N)CCCNC(=N)N)[C@H](C)O)C(=O)N[C@@H](C(=O)N[C@@H](C(=O)N[C@H](Cc1ccc(O)cc1)C(=O)N[C@H](Cc1ccccc1)C(=O)N[C@H](CCCNC(=N)N)C(=O)N[C@H](CCCCN)C(=O)O)C(C)C)C(C)C [SEQID No 33, r-s-t-k-k-w-m-v-v-y-f-r-k] (H-[dR][dS][dT][dK][dK][dW][dM][dV][dV][dY][dF][dR][dK]-OH; N-terminus and C-terminus assumed)","apoptosis-inducing activity (subG1), comparison in words",[1],about the same efficiency as SEQID NO 40
same,"apoptosis efficiency (subG1), comparison in words","[2]; 100 μM, FIG. 17",improvement over SEQID NO 40
same,"apoptosis efficiency (subG1), in words","[2]; 100 and 200 μM, Examples 107-110",considerable efficiency to induce apoptosis in pancreatic cancer cells
same,"apoptosis efficiency (subG1), comparison in words",[3],"improvement over the peptides SEQID NO 27, SEQID NO 31 and SEQID NO 32"
same,"induced apoptosis (decrease of cell vitality), in words","[4]; MEC-1, Protocol A, 50, 100, 200 μM, about 24 hours per Examples (FIG. 11 legend: about 2 hours)",very high level of induced apoptosis
same,selectivity (MEC-1 cancer cells versus healthy Lymphocyte (PBMC) cells),"[4]; cell vitality method, 50-200 μM, especially 100 μM and above, FIG. 11",astonishingly high selectivity
